Binding data for two molecules are collected here from paper PMC9283627, “Auxotrophic and prototrophic conditional genetic networks reveal the rewiring of transcription factors in Escherichia coli”.

Experiment [1] has as its target T1, YneJ, bacterial two-hybrid fusion (E. coli) (UniProt P77309).
T1 sequence: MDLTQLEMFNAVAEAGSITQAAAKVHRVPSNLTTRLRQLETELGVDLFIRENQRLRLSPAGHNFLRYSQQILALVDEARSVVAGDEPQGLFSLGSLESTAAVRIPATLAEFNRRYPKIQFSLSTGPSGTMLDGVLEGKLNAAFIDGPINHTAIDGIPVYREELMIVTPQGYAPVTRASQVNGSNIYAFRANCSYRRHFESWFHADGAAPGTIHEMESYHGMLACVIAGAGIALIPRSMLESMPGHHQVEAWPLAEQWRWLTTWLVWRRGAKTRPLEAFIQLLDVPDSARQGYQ
Kind of experiment: two-hybrid; bacterial two-hybrid (CyaA reconstitution; pUT18C, pKT25) in E. coli BTH101, M63 maltose agar with IPTG and X-gal, 32 °C, 16-24 h.

For experiment [2], the target named is T2, YneJ with a chromosomal C-terminal FLAG3 tag (E. coli) (UniProt P77309).
T2 sequence: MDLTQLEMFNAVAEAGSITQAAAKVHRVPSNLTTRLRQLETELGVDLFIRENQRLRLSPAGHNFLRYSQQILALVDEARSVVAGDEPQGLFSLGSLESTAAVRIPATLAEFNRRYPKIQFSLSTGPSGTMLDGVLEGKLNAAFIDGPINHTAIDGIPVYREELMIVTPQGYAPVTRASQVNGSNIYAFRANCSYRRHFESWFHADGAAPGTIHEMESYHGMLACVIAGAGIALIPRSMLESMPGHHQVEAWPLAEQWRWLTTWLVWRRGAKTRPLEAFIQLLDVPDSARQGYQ
Kind of experiment: co-IP; chromosomal YneJ-FLAG3 strain transformed with pCA24N His6-AcrR, 1 mM IPTG; RM and M9-tryptone conditions; MACS microbead immunoprecipitation, blot with His6-tag antibody.

Results are given in words; binding and its absence hold for the method and conditions named. For some assays here: Binding seen in cells or lysates may run through a third protein. Some binding calls cover weakened binding; strength is not graded here. Tags and fused reporters may be left off the sequences shown.

B1: AcrR, bacterial two-hybrid fusion (protein, UniProt P0ACS9 1-215)
chain: MARKTKQEAQETRQHILDVALRLFSQQGVSSTSLGEIAKAAGVTRGAIYWHFKDKSDLFSEIWELSESNIGELELEYQAKFPGDPLSVLREILIHVLESTVTEERRRLLMEIIFHKCEFVGEMAVVQQAQRNLCLESYDRIEQTLKHCIEAKMLPADLMTRRAAIIMRGYISGLMENWLFAPQSFDLKKEARDYVAILLEMYLLCPTLRNPATNE
B1: the binding entry in experiment [1] is “binds”.

B2: His6-tagged AcrR (protein, UniProt P0ACS9 1-215)
chain: MARKTKQEAQETRQHILDVALRLFSQQGVSSTSLGEIAKAAGVTRGAIYWHFKDKSDLFSEIWELSESNIGELELEYQAKFPGDPLSVLREILIHVLESTVTEERRRLLMEIIFHKCEFVGEMAVVQQAQRNLCLESYDRIEQTLKHCIEAKMLPADLMTRRAAIIMRGYISGLMENWLFAPQSFDLKKEARDYVAILLEMYLLCPTLRNPATNE
In the case of B2, the binding entry in experiment [2] is on record as “binds”.
